For one molecule, binding results are on record in PMC10679098.

This experiment has as its target EGFR extracellular domain construct (human). Put plainly: co-IP; exogenous co-IP from transfected 293T cells; about 200 ug total cellular protein incubated with the target antibody overnight at 4 °C, protein A-agarose beads, rabbit control IgG as negative control, immunoblot. In general terms: In western blotting, separated proteins are transferred to a membrane and probed.

No constants are given. Whether binding was seen depends on the method and setting. Binding seen in cells or lysates may run through a third protein. Binding can be weak; no strength is given.

B1: Procollagen-lysine, 2-oxoglutarate 5-dioxygenase 2 (PLOD2), full-length, expressed from a plasmid (enzyme, UniProt O00469-2 26-758)
chain: ADSEKPSSIPTDKLLVITVATKESDGFHRFMQSAKYFNYTVKVLGQGEEWRGGDGINSIGGGQKVRLMKEVMEHYADQDDLVVMFTECFDVIFAGGPEEVLKKFQKANHKVVFAADGILWPDKRLADKYPVVHIGKRYLNSGGFIGYAPYVNRIVQQWNLQDNDDDQLFYTKVYIDPLKREAINITLDHKCKIFQTLNGAVDEVVLKFENGKARAKNTFYETLPVAINGNGPTKILLNYFGNYVPNSWTQDNGCTLCEFDTVDLSAVDVHPNVSIGVFIEQPTPFLPRFLDILLTLDYPKEALKLFIHNKEVYHEKDIKVFFDKAKHEIKTIKIVGPEENLSQAEARNMGMDFCRQDEKCDYYFSVDADVVLTNPRTLKILIEQNRKIIAPLVTRHGKLWSNFWGALSPDGYYARSEDYVDIVQGNRVGVWNVPYMANVYLIKGKTLRSEMNERNYFVRDKLDPDMALCRNAREMTLQREKDSPTPETFQMLSPPKGVFMYISNRHEFGRLLSTANYNTSHYNNDLWQIFENPVDWKEKYINRDYSKIFTENIVEQPCPDVFWFPIFSEKACDELVEEMEHYGKWSGGKHHDSRISGGYENVPTDDIHMKQVDLENVWLHFIREFIAPVTLKVFAGYYTKGFALLNFVVKYSPERQRSLRPHHDASTFTINIALNNVGEDFQGGGCKFLRYNCSIESPRKGWSFMHPGRLTHLHEGLPVKNGTRYIAVSFIDP
On to B1, for which the binding result is recorded as “binds”.
